Results reported in publication PMC3098239.
These are yes or no findings as the source states them, for the method shown. Binding seen in cells or lysates may run through a third protein. Some results given as binding are weak or reduced against the parent protein; the word gives no strength. Where a sequence is shown, tags or fusion partners need not be part of it.

Columns and labels:
Experiment in all cases: co-IP; HEK293T cells cotransfected with HA-MARCH5 construct and Flag-TANK; lysis in TBS (50 mM Tris-Cl pH 7.4, 150 mM NaCl) with 1% Triton-X 100; immunoprecipitated with anti-HA, blotted with anti-Flag; 4°C
[1] = biological target: T1, HA-MARCH5 (wild type) (mouse (from the printed RefSeq NP_081590; HA-MARCH5 is set apart from HA-hMARCH5 in Figure 1)) (UniProt Q3KNM2)
T1 sequence: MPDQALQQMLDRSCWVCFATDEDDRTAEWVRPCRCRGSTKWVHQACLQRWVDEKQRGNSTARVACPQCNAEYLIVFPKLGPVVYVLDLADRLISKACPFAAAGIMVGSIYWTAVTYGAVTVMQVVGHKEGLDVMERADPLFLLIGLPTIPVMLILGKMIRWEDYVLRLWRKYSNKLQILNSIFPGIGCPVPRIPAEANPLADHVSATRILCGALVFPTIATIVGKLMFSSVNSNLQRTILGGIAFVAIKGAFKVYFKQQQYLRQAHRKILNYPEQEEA

[2] = biological target: T2, MARCH5-DM, the C-terminal transmembrane domain truncation (Δ105-246 a.a.) (mouse (from the printed RefSeq NP_081590)) (UniProt Q3KNM2)
T2 sequence: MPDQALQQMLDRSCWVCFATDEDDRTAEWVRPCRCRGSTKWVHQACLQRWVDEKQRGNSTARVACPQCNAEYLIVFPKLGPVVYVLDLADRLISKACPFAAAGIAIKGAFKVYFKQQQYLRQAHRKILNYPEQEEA

[3] = biological target: T3, HA-MARCH5 ΔRING (mouse (from the printed RefSeq NP_081590)) (UniProt Q3KNM2)
T3 sequence: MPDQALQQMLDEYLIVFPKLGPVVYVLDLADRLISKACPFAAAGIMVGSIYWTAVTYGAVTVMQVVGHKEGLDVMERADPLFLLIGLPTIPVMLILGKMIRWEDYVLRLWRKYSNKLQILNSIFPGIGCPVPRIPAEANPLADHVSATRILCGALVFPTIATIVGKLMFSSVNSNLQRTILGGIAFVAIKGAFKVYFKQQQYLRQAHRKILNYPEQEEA

Measured: binding

B1: Flag-TANK (wild type) (protein, UniProt P70347-2 1-414)
chain: MDKNIGEQLNRAYEAFRQACMDRDSAVRELQQKQTENYEQRIREQQEQLSFQQNLIDRLKSQLLLVDSSRDNSYGYVPLLEDSDRRKNNLTLDEPHDKVKLGTLRDKQSKVRRQEVSSGKESAKGLNIPLHHERDNIEKTFWDLKEEFHRICLLAKAQKDHLSKLNIPDIATDTQCSVPIQCTDKTEKQEALFKPQAKDDINRGMSCVTAVTPRGLGRDEEDTSFESLSKFNVKFPPMDNDSIFLHSTPEAPSILAPATPETVCQDRFNMEVRDNPGNFVKTEETLFEIQGIDPITSAIQNLKTTDKTNPSNLRATCLPAGDHNVFYVNTFPLQDPPDAPFPSLDSPGKAVRGPQQPFWKPFLNQDTDLVVPSDSDSELLKPLVCEFCQELFPPSITSRGDFLRHLNTHFNGET
binds: all assays above
